Experimental data: US5491132A
The match of structure and compound is tentative.

The chains behind the UniProt entries cited, without tags or fusion partners. Residues count along the entry.
UniProt P00797, 67-406 limits assumed: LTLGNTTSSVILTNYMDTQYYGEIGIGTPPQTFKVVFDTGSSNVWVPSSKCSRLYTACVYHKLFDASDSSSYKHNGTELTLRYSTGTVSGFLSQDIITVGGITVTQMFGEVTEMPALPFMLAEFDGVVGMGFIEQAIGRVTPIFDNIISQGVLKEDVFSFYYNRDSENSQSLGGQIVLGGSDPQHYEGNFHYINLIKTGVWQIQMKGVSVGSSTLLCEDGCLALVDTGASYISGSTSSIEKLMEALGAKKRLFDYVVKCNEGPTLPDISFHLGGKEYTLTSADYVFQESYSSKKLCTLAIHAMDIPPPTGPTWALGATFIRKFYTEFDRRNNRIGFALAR

Biological target: renin (Homo sapiens, UniProt P00797)
Assay: Inhibition of human plasma renin activity (angiotensin I formation, RIA)
Conditions: pooled human plasma, endogenous renin and angiotensinogen, pH 6.0, 37° C., 90 minutes incubation, Ang I measured by RIA; Probit method; tested form: 2HCl
Method: Human plasma was collected from male volunteers pretreated with no drugs and used as a pool. Disodium salt of ethylenediaminetetraacetic acid (EDTA) was used as the anticoagulant. Plasma renin activity was measured as the rate of angiotensin I (Ang I) formation after incubation (37° C.) of the endogenous renin and angiotensinogen in plasma at pH 6.0. The incubation mixture contained 250 μl of plasma, 5 μl of (phenylmethyl)sulfonyl fluoride, 30 μl of buffer (sodium, potassium-phosphate, pH 6.0), and 15 μl of an appropriate concentration of test compound in 50% ethyl alcohol-water vehicle. The Ang I formed after 90 minutes of incubation was measured by radioimmunoassay (RIA) which was carried out with a commercial kit, RENIN.RIABEAD (Trademark: manufactured by Dainabot Co., Ltd.). Samples were incubated in duplicate and each tube was measured in duplicate in the RIA. Percentage inhibition of plasma renin activity was calculated by comparing the amount of Ang I produced with and without a test compound. The concentration of test compound that inhibited plasma renin activity by 50% (IC50) was determined by Probit method.

- IC50: 9.6 nM
SMILES: CC(C)CC[C@H](O)[C@H](CC1CCCCC1)NC(=O)[C@H](Cc1c[nH]cn1)N(C)C(=O)[C@H](Cc1ccccc1)NC(=O)N(C)CCc1ccccn1
